Variants at the floor of the assay are shown more often than the library holds them.
B1: tRNA (parent)
chain: GUUCCGUUGGCGUAAUGGUAACGCGUCUCCCUCCUAAGGAGAAGACUGCGGGUUCGAGUCCCGUACGGAACG

Variants of: B1
Assay: yeast fitness relative to wild type (ratio to wild type); higher = fitter; tRNA-Arg(CCU), competitive growth, 37 C, YPD
How it was run: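 Genotype frequency changes were the basis for Darwinian fitness relative to wild type. The frequencies came from 100-nucleotide paired-end sequencing of gene amplicons from the start population and each end population of pooled yeast strains with tRNA-Arg(CCU) gene variants at the native locus. Competition ran in YPD at 37°C for 24 hours in six replicates, genotypes needed ≥ 100 starting reads, and estimates < 0.5 were set to 0.5.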
With U35G G67U the yeast fitness was at most 0.5. For A36C A37G, the yeast fitness was 0.611. For A36C A37U C66A, the yeast fitness was at most 0.5. In the case of A36C A37U U54C A57G, the yeast fitness is reported as at most 0.5. With A36C A40C G50A the yeast fitness was at most 0.5. In the case of A36C A43U G56A, the yeast fitness is reported as at most 0.5. For A36C C46G G51C, the yeast fitness was at most 0.5. A36C C49G A70U showed a yeast fitness of at most 0.5. Variant A36C C60U C62U A65C has a yeast fitness of at most 0.5. For A36C C62G, the yeast fitness was 0.575. A36C G39C gave a yeast fitness of at most 0.5. In the case of A36C G51C, the yeast fitness is reported as at most 0.5. With A36C U47A G48C the yeast fitness was at most 0.5. In the case of A36C U47A G48C G51C G68C, the yeast fitness is reported as at most 0.5. With A36C U53C C62U the yeast fitness was at most 0.5. A36G A37U A69C showed a yeast fitness of 0.663. A36G A45C C61U gave a yeast fitness of 0.76. Work on A36G G38C G63A yielded a yeast fitness of at most 0.5. For A36G G48A C49U, the yeast fitness was 0.606. With A36U A37C C49A U53G the yeast fitness was at most 0.5. A36U A37U gave a yeast fitness of 0.587. A36U A40G G48C G50A gave a yeast fitness of at most 0.5. With A36U A40U C49G C61A the yeast fitness was at most 0.5. For A36U A43U, the yeast fitness was 0.638. For A36U C62U A69C, the yeast fitness was at most 0.5. Variant A36U G44A C46U A57G has a yeast fitness of at most 0.5. Work on A36U G48A G50U A57U yielded a yeast fitness of at most 0.5. Variant A37C A57G has a yeast fitness of 0.665. A37C C46U A69U showed a yeast fitness of 0.7. Variant A37C C46U C62A A69U has a yeast fitness of at most 0.5. With A37C C49G C66A the yeast fitness was at most 0.5. With A37C C60U A70C the yeast fitness was 0.546. In the case of A37C C62A, the yeast fitness is reported as 0.874. In the case of A37C G48A, the yeast fitness is reported as 0.779. Work on A37C G52C G67A yielded a yeast fitness of at most 0.5. A37C U47G U53A gave a yeast fitness of 0.535. A37C U59C showed a yeast fitness of 0.699. For A37G A40G A70U, the yeast fitness was at most 0.5. Work on A37G A40G G68U yielded a yeast fitness of at most 0.5. Work on A37G A42U A65C A69C yielded a yeast fitness of at most 0.5. With A37G A45U U64A the yeast fitness was at most 0.5. In the case of A37G A57U, the yeast fitness is reported as 0.55. Variant A37G A65G has a yeast fitness of 0.695. For A37G C46A, the yeast fitness was 0.774. Work on A37G C55U A65G yielded a yeast fitness of at most 0.5. In the case of A37G C60U A65G, the yeast fitness is reported as at most 0.5. With A37G C66U A69U the yeast fitness was 0.674. A37G G38C A65U gave a yeast fitness of at most 0.5. A37G G39A A45C showed a yeast fitness of 0.635. In the case of A37G G39A C62U G63A, the yeast fitness is reported as at most 0.5. A37G G39A G58A gave a yeast fitness of at most 0.5. A37G G41C A43U A57U gave a yeast fitness of at most 0.5. A37G G41C C55G showed a yeast fitness of at most 0.5. A37G G41C U47A showed a yeast fitness of at most 0.5. A37G U54A U59A showed a yeast fitness of at most 0.5. With A37G U54C C62U G68C the yeast fitness was at most 0.5. A37U A40C A42G C62U showed a yeast fitness of at most 0.5. A37U A42C A69C showed a yeast fitness of at most 0.5. With A37U A45U U47C C62G the yeast fitness was at most 0.5. A37U A65U A69C gave a yeast fitness of at most 0.5. With A37U C49U U53C the yeast fitness was at most 0.5. For A37U G48C A57G G68C, the yeast fitness was at most 0.5. Variant A37U G51A U59C has a yeast fitness of at most 0.5. A37U G52A A65G gave a yeast fitness of at most 0.5. G38A A40U C55A A57C C66U showed a yeast fitness of at most 0.5. G38A A40U G50C gave a yeast fitness of at most 0.5. Work on G38A A42G C66A yielded a yeast fitness of at most 0.5. In the case of G38A C49U G51C, the yeast fitness is reported as at most 0.5. For G38A C62U A70U, the yeast fitness was 0.577. Work on G38A G44C U47G yielded a yeast fitness of at most 0.5. For G38A G56A C66G, the yeast fitness was at most 0.5. G38C A42G G56C showed a yeast fitness of at most 0.5. In the case of G38C A42U U47G C62U, the yeast fitness is reported as at most 0.5. Work on G38C C49G yielded a yeast fitness of 0.743. For G38C C62U A65G A70U, the yeast fitness was at most 0.5. With G38C G51A A57U the yeast fitness was at most 0.5. Variant G38C G67U has a yeast fitness of 0.549. In the case of G38C U53G U59G C62A, the yeast fitness is reported as at most 0.5. G38U A69C showed a yeast fitness of 0.892. Work on G39A A42G C66U yielded a yeast fitness of at most 0.5. With G39A A45C A65U C66U the yeast fitness was at most 0.5. Work on G39A C60U U64A yielded a yeast fitness of at most 0.5. With G39A G48C A70U the yeast fitness was at most 0.5. Variant G39A G56C C66A has a yeast fitness of at most 0.5. In the case of G39C A40G C66G A69C, the yeast fitness is reported as at most 0.5. With G39C A42G U59A the yeast fitness was at most 0.5. In the case of G39C C46G C49G, the yeast fitness is reported as at most 0.5. In the case of G39C C46U G56A, the yeast fitness is reported as 0.694. With G39C C49G A65G the yeast fitness was at most 0.5. Variant G39C G48C G63C C66G has a yeast fitness of at most 0.5. With G39C G51A C66U the yeast fitness was at most 0.5. Work on G39C G52A G68A yielded a yeast fitness of at most 0.5. In the case of A40C, the yeast fitness is reported as 1. In the case of A40C A42U C61G, the yeast fitness is reported as at most 0.5. In the case of A40C A57G C61U, the yeast fitness is reported as 0.573. Work on A40C C49G yielded a yeast fitness of 0.804. A40C G41C A70G gave a yeast fitness of at most 0.5. For A40C G51A C62U, the yeast fitness was at most 0.5. Variant A40C G63A A69C has a yeast fitness of at most 0.5. Work on A40G C49G U59G G67C yielded a yeast fitness of 0.706. In the case of A40G C66U, the yeast fitness is reported as 0.792. A40G G44A C62A gave a yeast fitness of at most 0.5. In the case of A40G U64C C66A, the yeast fitness is reported as at most 0.5. Variant A40U A42C C55U A70U has a yeast fitness of at most 0.5. For A40U A42C C66U, the yeast fitness was at most 0.5. A40U A42C G52A U64C C66U gave a yeast fitness of at most 0.5. In the case of A40U A42G C55G G58A, the yeast fitness is reported as at most 0.5. Variant A40U A70G has a yeast fitness of 0.934. A40U G44C U53G C62U showed a yeast fitness of at most 0.5. With A40U U54A C60G G67C the yeast fitness was 0.599. In the case of G41A A42G G58U G63C, the yeast fitness is reported as at most 0.5. Variant G41A C55G C62U C66U has a yeast fitness of at most 0.5. G41A C55U U59A A70U gave a yeast fitness of at most 0.5. In the case of G41A G48A G68U A70C, the yeast fitness is reported as at most 0.5. G41C A43U G68U gave a yeast fitness of at most 0.5. For G41C A69U A70U, the yeast fitness was 0.629. In the case of G41C C49A A70C, the yeast fitness is reported as at most 0.5. In the case of G41C C49A G52A A69C, the yeast fitness is reported as at most 0.5. G41C C66A showed a yeast fitness of 0.621. G41C U64G showed a yeast fitness of 0.735. Work on A42C C49G G50A yielded a yeast fitness of 0.507. In the case of A42C G50C G68C, the yeast fitness is reported as at most 0.5. Work on A42C G63C yielded a yeast fitness of 0.681. Work on A42C G68A yielded a yeast fitness of 0.898. Variant A42C G68C A69G has a yeast fitness of at most 0.5. A42C U54C showed a yeast fitness of 0.796. Variant A42G A43C has a yeast fitness of 1.17. Variant A42G C49G has a yeast fitness of 0.767. Variant A42G C55G has a yeast fitness of 0.669. For A42G C55U A57G, the yeast fitness was at most 0.5. Work on A42G G44C C60A G67C G68A yielded a yeast fitness of at most 0.5. A42G G48C C49A U53A G56A G58C showed a yeast fitness of at most 0.5. For A42G G68C A69G, the yeast fitness was 0.563. Variant A42G U59A has a yeast fitness of 0.939. Work on A42U A43C yielded a yeast fitness of 0.994. Work on A42U A65U A69C yielded a yeast fitness of at most 0.5. A42U C46G G50A G67C showed a yeast fitness of at most 0.5. In the case of A42U C49G U53A, the yeast fitness is reported as at most 0.5. A42U C49U C66G gave a yeast fitness of at most 0.5. With A42U C61U G68C the yeast fitness was at most 0.5. A42U G50A C60G showed a yeast fitness of 0.614. Variant A42U G50C C62A has a yeast fitness of at most 0.5. With A42U G52A G67U the yeast fitness was 0.783. In the case of A42U G63A A65G, the yeast fitness is reported as 0.572. Work on A43C A57G U59C A70G yielded a yeast fitness of at most 0.5. A43C C46U C62U G63C C66U gave a yeast fitness of at most 0.5. In the case of A43C C55U, the yeast fitness is reported as 0.721. A43C C66G A69U showed a yeast fitness of at most 0.5. A43C U47A showed a yeast fitness of 0.732. For A43G A57G, the yeast fitness was 0.924. In the case of A43G G44A G56C C62U, the yeast fitness is reported as at most 0.5. With A43G G58C the yeast fitness was 0.855. Variant A43G U47C A65U has a yeast fitness of 0.668. With A43G U53G C55A G56C A57G G58A U59G C60U A65C the yeast fitness was at most 0.5. A43G U59A C66G showed a yeast fitness of at most 0.5. A43G U64G showed a yeast fitness of 0.64. A43U C62G A65G C66A A69C gave a yeast fitness of at most 0.5. Work on A43U G48C C55U yielded a yeast fitness of at most 0.5. For A43U G48C U54C C60G, the yeast fitness was at most 0.5. A43U G56C gave a yeast fitness of 0.702. For A43U U54A, the yeast fitness was 0.683. With A43U U64C the yeast fitness was 1.02. With G44A A45G G51C C66U A69C the yeast fitness was 0.576. In the case of G44A A57U C60G, the yeast fitness is reported as at most 0.5. With G44A A65C the yeast fitness was 1.05. Work on G44A C55A G58C yielded a yeast fitness of at most 0.5. With G44A C55A U59A the yeast fitness was at most 0.5.

Source: the RNAGym collection of RNA variant scans (doi:10.1126/science.aae0568)
